Measurements reported in the supplement of paper PMC4604168 (melanoma cell lines).
The list shows a part of the results. Repeats are few or missing, and single values can be far off.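 Imaging used 1,536-well plates; nuclei positive for cleaved PARP by antibody were divided by total DNA-stained nuclei to yield the apoptosis fraction. Doses for screening kept most cells viable, and cell lines differ markedly in resting and induced cleaved-PARP levels.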

How the values were obtained:
Test in all cases: cleaved PARP positive nuclei fraction relative to DMSO control; melanoma cells; higher = more apoptosis
Settings in all cases: library dose: low library concentration; 72 h
[1] = system: WM115
[2] = system: WM1716
[3] = system: WM1745
[4] = system: WM3526
[5] = system: WM3619
[6] = system: WM451Lu

| SMILES | cleaved PARP positive nuclei fraction [1] [%] | cleaved PARP positive nuclei fraction [2] [%] | cleaved PARP positive nuclei fraction [3] [%] | cleaved PARP positive nuclei fraction [4] [%] | cleaved PARP positive nuclei fraction [5] [%] | cleaved PARP positive nuclei fraction [6] [%] |
| --- | --- | --- | --- | --- | --- | --- |
| CCN(CC)CCNC(=O)c1c(C)[nH]c(/C=C2\C(=O)Nc3ccc(F)cc32)c1C [sunitinib] + O=C(O)c1ccc2c(c1)nc(Nc1cccc(Cl)c1)c1ccncc12 [CX4945] (first compound 0.4 µM, partner dose 0.4 µM) | 220 | 112 | 114 | 56.5 | 80.2 | 48.6 |
| CC(=O)O[C@@]12CO[C@@H]1C[C@H](O)[C@@]1(C)C(=O)[C@H](O)C3=C(C)[C@@H](OC(=O)[C@H](O)[C@@H](NC(=O)OC(C)(C)C)c4ccccc4)C[C@@](O)([C@@H](OC(=O)c4ccccc4)[C@H]21)C3(C)C [Docetaxel] + CCCS(=O)(=O)Nc1ccc(F)c(C(=O)c2c[nH]c3ncc(Cl)cc23)c1F [PLX4720] (first compound 0.0001 µM, partner dose 0.08 µM) | 295 | 173 | 159 | 301 | 119 | 50.8 |
| CC1(C)CCC(c2ccc(Cl)cc2)=C(CN2CCN(c3ccc(C(=O)NS(=O)(=O)c4ccc(N[C@H](CCN5CCOCC5)CSc5ccccc5)c(S(=O)(=O)C(F)(F)F)c4)cc3)CC2)C1 + COc1cc2c(Oc3ccc4[nH]c(C)cc4c3F)ncnc2cc1OCCCN1CCCC1 [cediranib] (first compound 0.4 µM, partner dose 0.4 µM) | 220 | 240 | 1020 | 59.2 | 100 | 66 |
| CCCCCCCCc1ccc(CCC(N)(CO)CO)cc1 [fingolimod] + C=C(c1ccc(C(=O)O)cc1)c1cc2c(cc1C)C(C)(C)CCC2(C)C [Bexarotene] (first compound 2 µM, partner dose 2 µM) | 54.6 | 119 | 99.2 | 271 | 104 | 91.5 |
| Cn1cnc2c(F)c(Nc3ccc(Br)cc3Cl)c(C(=O)NOCCO)cc21 [selumetinib] + C=CCn1c(=O)c2cnc(Nc3ccc(N4CCN(C)CC4)cc3)nc2n1-c1cccc(C(C)(C)O)n1 [MK1775] (first compound 0.015 µM, partner dose 0.02 µM) | 327 | 44.8 | 105 | 85.7 | 117 | 190 |
| C[C@]1(O)C[C@@H](c2nc(-c3ccc4ccc(-c5ccccc5)nc4c3)c3c(N)nccn32)C1 + NCC(=O)Nc1ccc(-n2nc(C(F)(F)F)cc2-c2ccc3c(ccc4ccccc43)c2)cc1 [OSU03012] (first compound 0.4 µM, partner dose 1 µM) | 48 | 149 | 122 | 247 | 140 | 145 |
| CC(=O)O[C@@]12CO[C@@H]1C[C@H](O)[C@@]1(C)C(=O)[C@H](O)C3=C(C)[C@@H](OC(=O)[C@H](O)[C@@H](NC(=O)OC(C)(C)C)c4ccccc4)C[C@@](O)([C@@H](OC(=O)c4ccccc4)[C@H]21)C3(C)C [Docetaxel] + O=C(O)c1ccc2c(c1)nc(Nc1cccc(Cl)c1)c1ccncc12 [CX4945] (first compound 0.0001 µM, partner dose 0.4 µM) | 776 | 796 | 147 | 181 | 146 | 50.7 |
| CS(=O)(=O)c1ccc(C(=O)Nc2ccc(Cl)c(-c3ccccn3)c2)c(Cl)c1 [vismodegib] + Cn1c(=O)n(-c2ccc(C(C)(C)C#N)cc2)c2c3cc(-c4cnc5ccccc5c4)ccc3ncc21 [NVP-BEZ235] (first compound 1 µM, partner dose 0.004 µM) | 103 | 22.8 | 91.3 | 19.2 | 99.6 | 88.8 |
| NC1(c2ccc(-c3nc4ccn5c(=O)[nH]nc5c4cc3-c3ccccc3)cc2)CCC1 + C=CCn1c(=O)c2cnc(Nc3ccc(N4CCN(C)CC4)cc3)nc2n1-c1cccc(C(C)(C)O)n1 [MK1775] (first compound 0.4 µM, partner dose 0.02 µM) | 929 | 205 | 145 | 191 | 96 | 96.1 |
| COc1ccc(C2=N[C@@H](c3ccc(Cl)cc3)[C@@H](c3ccc(Cl)cc3)N2C(=O)N2CCNC(=O)C2)c(OC(C)C)c1 [Nutlin-3] + CS(=O)(=O)c1ccc(C(=O)Nc2ccc(Cl)c(-c3ccccn3)c2)c(Cl)c1 [vismodegib] (first compound 0.1 µM, partner dose 1 µM) | 82.7 | 35.9 | 83.7 | 168 | 103 | 46 |
| C[C@]1(O)C[C@@H](c2nc(-c3ccc4ccc(-c5ccccc5)nc4c3)c3c(N)nccn32)C1 + Oc1nc(-c2ccc(C(F)(F)F)cc2)nc2c1CSCC2 [XAV939] (first compound 0.4 µM, partner dose 2 µM) | 52.5 | 549 | 122 | 93.1 | 90.6 | 112 |
| C[C@]1(O)C[C@@H](c2nc(-c3ccc4ccc(-c5ccccc5)nc4c3)c3c(N)nccn32)C1 + COC(=O)c1sccc1S(=O)(=O)Nc1ccc(Nc2ccccc2)cc1OC [GSK0660] (first compound 0.4 µM, partner dose 1 µM) | 122 | 32.4 | 103 | 170 | 104 | 71.2 |
| CC1(C)CCC(c2ccc(Cl)cc2)=C(CN2CCN(c3ccc(C(=O)NS(=O)(=O)c4ccc(N[C@H](CCN5CCOCC5)CSc5ccccc5)c(S(=O)(=O)C(F)(F)F)c4)cc3)CC2)C1 + Cc1cc(N2CCOCC2)cc2[nH]c(-c3c(NC[C@@H](O)c4cccc(Cl)c4)cc[nH]c3=O)nc12 [BMS536924] (first compound 0.4 µM, partner dose 0.2 µM) | 544 | 280 | 954 | 35.8 | 123 | 79.7 |
| CCN(CC)CCNC(=O)c1c(C)[nH]c(/C=C2\C(=O)Nc3ccc(F)cc32)c1C [sunitinib] + CCCS(=O)(=O)Nc1ccc(F)c(C(=O)c2c[nH]c3ncc(Cl)cc23)c1F [PLX4720] (first compound 0.4 µM, partner dose 0.08 µM) | 147 | 60.8 | 115 | 63.5 | 114 | 92 |
| CC1(C)CCC(c2ccc(Cl)cc2)=C(CN2CCN(c3ccc(C(=O)NS(=O)(=O)c4ccc(N[C@H](CCN5CCOCC5)CSc5ccccc5)c(S(=O)(=O)C(F)(F)F)c4)cc3)CC2)C1 + COc1cc2ncnc(Nc3ccc(Oc4ccccc4)cc3)c2cc1OC [SrcI1] (first compound 0.4 µM, partner dose 2 µM) | 262 | 300 | 315 | 71.4 | 91.2 | 1250 |
| Cn1sc(=O)n(Cc2ccccc2)c1=O + O=S(=O)(c1ccccc1)N(CC(F)(F)F)c1ccc(C(O)(C(F)(F)F)C(F)(F)F)cc1 [T0901317] (first compound 0.4 µM, partner dose 1.4 µM) | 84.7 | 33.4 | 115 | 183 | 90.8 | 72.2 |
| CN(c1ncccc1CNc1nc(Nc2ccc3c(c2)CC(=O)N3)ncc1C(F)(F)F)S(C)(=O)=O + Cc1nc(Nc2ncc(C(=O)Nc3c(C)cccc3Cl)s2)cc(N2CCN(CCO)CC2)n1 [dasatanib] (first compound 0.08 µM, partner dose 0.004 µM) | 62.4 | 42.1 | 162 | 75.8 | 100 | 148 |
| COc1ccc(C2=N[C@@H](c3ccc(Cl)cc3)[C@@H](c3ccc(Cl)cc3)N2C(=O)N2CCNC(=O)C2)c(OC(C)C)c1 [Nutlin-3] + O=C(CCCCCCC(=O)Nc1ccccc1)NO [vorinostat] (first compound 0.1 µM, partner dose 0.08 µM) | 44.1 | 100 | 81.4 | 56.2 | 95.6 | 133 |
| CN(c1ncccc1CNc1nc(Nc2ccc3c(c2)CC(=O)N3)ncc1C(F)(F)F)S(C)(=O)=O + COc1ccc(Cl)c(Nc2nc3ccccc3nc2NS(=O)(=O)c2cccc(NC(=O)C(C)(C)N)c2)c1 [XL147] (first compound 0.08 µM, partner dose 0.8 µM) | 117 | 1050 | 143 | 88.4 | 99.3 | 186 |
| C[C@@H](N)c1ccc(C(=O)Nc2ccnc3[nH]ccc23)cc1 + CO[C@H]1C[C@@H]2CC[C@@H](C)[C@@](O)(O2)C(=O)C(=O)N2CCCC[C@H]2C(=O)O[C@H]([C@H](C)C[C@@H]2CC[C@@H](OCCO)[C@H](OC)C2)CC(=O)[C@H](C)/C=C(\C)[C@@H](O)[C@@H](OC)C(=O)[C@H](C)C[C@H](C)/C=C/C=C/C=C/1C [everolimus] (first compound 0.4 µM, partner dose 0.02 µM) | 195 | 345 | 103 | 34.7 | 153 | 46.5 |
| Cn1cnc2c(F)c(Nc3ccc(Br)cc3Cl)c(C(=O)NOCCO)cc21 [selumetinib] + CN(C)S(=O)(=O)c1ccc2c(c1)/C(=C/c1cc3c([nH]1)CCCC3)C(=O)N2 [SU6656] (first compound 0.015 µM, partner dose 0.4 µM) | 313 | 63.7 | 128 | 36.3 | 112 | 97.2 |
| NC1(c2ccc(-c3nc4ccn5c(=O)[nH]nc5c4cc3-c3ccccc3)cc2)CCC1 + c1cc(-c2cnn3cc(-c4ccc(OCCN5CCCCC5)cc4)cnc23)ccn1 [Dorsomorphin] (first compound 0.4 µM, partner dose 0.4 µM) | 133 | 105 | 97.5 | 226 | 134 | 106 |
| CS(=O)(=O)c1ccc(C(=O)Nc2ccc(Cl)c(-c3ccccn3)c2)c(Cl)c1 [vismodegib] + CC(=O)O[C@@]12CO[C@@H]1C[C@H](O)[C@@]1(C)C(=O)[C@H](O)C3=C(C)[C@@H](OC(=O)[C@H](O)[C@@H](NC(=O)OC(C)(C)C)c4ccccc4)C[C@@](O)([C@@H](OC(=O)c4ccccc4)[C@H]21)C3(C)C [Docetaxel] (first compound 1 µM, partner dose 0.0001 µM) | 174 | 533 | 156 | 195 | 112 | 199 |
| NC1(c2ccc(-c3nc4ccn5c(=O)[nH]nc5c4cc3-c3ccccc3)cc2)CCC1 + CS(=O)(=O)CCNCc1ccc(-c2ccc3ncnc(Nc4ccc(OCc5cccc(F)c5)c(Cl)c4)c3c2)o1 [lapatinib] (first compound 0.4 µM, partner dose 0.8 µM) | 223 | 84.3 | 117 | 149 | 103 | 99.7 |
| CS(=O)(=O)c1ccc(C(=O)Nc2ccc(Cl)c(-c3ccccn3)c2)c(Cl)c1 [vismodegib] + CC(C)C[C@H](NC(=O)[C@H](Cc1ccccc1)NC(=O)c1cnccn1)B(O)O [Bortezomib] (first compound 1 µM, partner dose 0.001 µM) | 61.4 | 59.2 | 107 | 101 | 121 | 87.2 |

Two consecutive entries out of the list so far:

| SMILES | cleaved PARP positive nuclei fraction [1] [%] | cleaved PARP positive nuclei fraction [2] [%] | cleaved PARP positive nuclei fraction [3] [%] | cleaved PARP positive nuclei fraction [4] [%] | cleaved PARP positive nuclei fraction [5] [%] | cleaved PARP positive nuclei fraction [6] [%] |
| --- | --- | --- | --- | --- | --- | --- |
| CC1(C)CCC(c2ccc(Cl)cc2)=C(CN2CCN(c3ccc(C(=O)NS(=O)(=O)c4ccc(N[C@H](CCN5CCOCC5)CSc5ccccc5)c(S(=O)(=O)C(F)(F)F)c4)cc3)CC2)C1 + COc1cc2c(Oc3ccc4[nH]c(C)cc4c3F)ncnc2cc1OCCCN1CCCC1 [cediranib] (first compound 0.4 µM, partner dose 0.4 µM) | 220 | 240 | 1020 | 59.2 | 100 | 66 |
| CCCCCCCCc1ccc(CCC(N)(CO)CO)cc1 [fingolimod] + C=C(c1ccc(C(=O)O)cc1)c1cc2c(cc1C)C(C)(C)CCC2(C)C [Bexarotene] (first compound 2 µM, partner dose 2 µM) | 54.6 | 119 | 99.2 | 271 | 104 | 91.5 |
